Paper PMC8599447

Molecular target: T1, TFCP2, endogenously expressed (human (endogenous in pancreatic cancer cells)) (UniProt Q12800)
T1 sequence: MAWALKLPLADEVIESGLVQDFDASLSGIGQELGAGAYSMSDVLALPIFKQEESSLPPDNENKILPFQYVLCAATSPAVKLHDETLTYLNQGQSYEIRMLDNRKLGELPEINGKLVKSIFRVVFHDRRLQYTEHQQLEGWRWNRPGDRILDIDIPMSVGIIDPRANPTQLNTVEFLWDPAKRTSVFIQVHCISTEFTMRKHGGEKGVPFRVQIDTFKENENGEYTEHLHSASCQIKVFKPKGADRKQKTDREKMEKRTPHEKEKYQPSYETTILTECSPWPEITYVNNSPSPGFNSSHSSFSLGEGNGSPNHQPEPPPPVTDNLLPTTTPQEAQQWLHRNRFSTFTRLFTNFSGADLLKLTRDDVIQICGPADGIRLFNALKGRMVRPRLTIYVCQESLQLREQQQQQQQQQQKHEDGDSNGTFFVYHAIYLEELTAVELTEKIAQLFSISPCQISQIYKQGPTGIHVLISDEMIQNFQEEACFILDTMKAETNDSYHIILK
Experiment: co-IP; endogenous proteins; RIPA lysate, primary antibody overnight at 4°C, Protein A/G agarose beads, western blot

- binding: binds
Substance: SREBP2(N), endogenous

These are yes or no findings as the source states them, for the method shown. In cells and extracts the contact can be indirect. A result given as binding can be weak or reduced; the word gives no strength.
